Measured values published in publication PMC11413784.
Results are given in words; binding and its absence hold for the method and conditions named. In cells and extracts the contact can be indirect. Some binding calls cover weakened binding; strength is not graded here.

Amino acid sequences for entries named in this document (tags omitted).
UniProt O60674: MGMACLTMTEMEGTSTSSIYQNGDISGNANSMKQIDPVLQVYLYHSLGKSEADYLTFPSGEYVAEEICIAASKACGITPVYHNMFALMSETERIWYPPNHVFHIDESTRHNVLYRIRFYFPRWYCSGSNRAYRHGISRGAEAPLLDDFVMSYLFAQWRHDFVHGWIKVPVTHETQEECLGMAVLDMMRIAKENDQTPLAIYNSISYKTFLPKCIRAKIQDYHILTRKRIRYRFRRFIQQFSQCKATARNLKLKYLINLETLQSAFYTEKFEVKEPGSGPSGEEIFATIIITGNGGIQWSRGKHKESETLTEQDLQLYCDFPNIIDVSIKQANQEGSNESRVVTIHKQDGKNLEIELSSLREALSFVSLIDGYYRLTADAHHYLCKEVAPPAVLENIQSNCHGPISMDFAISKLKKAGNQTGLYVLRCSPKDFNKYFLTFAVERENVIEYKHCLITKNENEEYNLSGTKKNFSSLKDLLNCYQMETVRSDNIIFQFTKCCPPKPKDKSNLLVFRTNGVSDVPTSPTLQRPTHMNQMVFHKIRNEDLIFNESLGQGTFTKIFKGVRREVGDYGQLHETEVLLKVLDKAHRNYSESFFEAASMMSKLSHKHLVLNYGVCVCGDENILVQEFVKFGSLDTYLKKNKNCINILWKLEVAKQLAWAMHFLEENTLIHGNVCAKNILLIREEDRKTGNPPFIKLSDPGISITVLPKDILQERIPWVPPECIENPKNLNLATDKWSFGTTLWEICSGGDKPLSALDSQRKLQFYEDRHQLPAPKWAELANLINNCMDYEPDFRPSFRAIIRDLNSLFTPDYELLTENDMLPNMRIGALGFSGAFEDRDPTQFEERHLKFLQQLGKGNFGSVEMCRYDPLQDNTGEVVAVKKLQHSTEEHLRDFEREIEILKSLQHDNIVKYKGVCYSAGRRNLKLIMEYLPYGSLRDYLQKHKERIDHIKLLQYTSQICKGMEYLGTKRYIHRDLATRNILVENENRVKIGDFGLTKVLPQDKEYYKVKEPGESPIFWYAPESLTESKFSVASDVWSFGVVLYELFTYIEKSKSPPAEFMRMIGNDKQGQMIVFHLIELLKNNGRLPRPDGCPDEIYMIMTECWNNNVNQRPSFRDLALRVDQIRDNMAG
UniProt P42229: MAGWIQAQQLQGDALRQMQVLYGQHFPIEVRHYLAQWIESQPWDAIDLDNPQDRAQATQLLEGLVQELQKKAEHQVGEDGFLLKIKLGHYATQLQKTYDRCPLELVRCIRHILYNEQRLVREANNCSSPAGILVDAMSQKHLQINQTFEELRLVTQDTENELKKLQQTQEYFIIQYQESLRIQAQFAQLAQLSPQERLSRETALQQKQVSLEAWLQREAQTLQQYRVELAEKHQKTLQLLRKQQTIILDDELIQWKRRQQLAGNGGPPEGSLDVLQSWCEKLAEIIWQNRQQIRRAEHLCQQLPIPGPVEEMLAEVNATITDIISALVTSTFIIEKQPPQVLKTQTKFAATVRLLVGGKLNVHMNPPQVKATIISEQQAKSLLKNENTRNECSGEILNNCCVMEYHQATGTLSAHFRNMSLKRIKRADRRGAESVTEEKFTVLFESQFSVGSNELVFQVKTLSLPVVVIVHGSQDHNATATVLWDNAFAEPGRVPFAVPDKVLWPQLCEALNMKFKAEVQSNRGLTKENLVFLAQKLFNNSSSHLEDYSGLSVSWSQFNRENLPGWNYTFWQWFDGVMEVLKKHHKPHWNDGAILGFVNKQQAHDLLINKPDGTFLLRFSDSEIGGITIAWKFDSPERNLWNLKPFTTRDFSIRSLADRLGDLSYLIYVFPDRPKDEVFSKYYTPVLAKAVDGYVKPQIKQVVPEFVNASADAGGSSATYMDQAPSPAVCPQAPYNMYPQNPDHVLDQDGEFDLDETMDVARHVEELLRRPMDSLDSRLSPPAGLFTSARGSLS
UniProt P51692: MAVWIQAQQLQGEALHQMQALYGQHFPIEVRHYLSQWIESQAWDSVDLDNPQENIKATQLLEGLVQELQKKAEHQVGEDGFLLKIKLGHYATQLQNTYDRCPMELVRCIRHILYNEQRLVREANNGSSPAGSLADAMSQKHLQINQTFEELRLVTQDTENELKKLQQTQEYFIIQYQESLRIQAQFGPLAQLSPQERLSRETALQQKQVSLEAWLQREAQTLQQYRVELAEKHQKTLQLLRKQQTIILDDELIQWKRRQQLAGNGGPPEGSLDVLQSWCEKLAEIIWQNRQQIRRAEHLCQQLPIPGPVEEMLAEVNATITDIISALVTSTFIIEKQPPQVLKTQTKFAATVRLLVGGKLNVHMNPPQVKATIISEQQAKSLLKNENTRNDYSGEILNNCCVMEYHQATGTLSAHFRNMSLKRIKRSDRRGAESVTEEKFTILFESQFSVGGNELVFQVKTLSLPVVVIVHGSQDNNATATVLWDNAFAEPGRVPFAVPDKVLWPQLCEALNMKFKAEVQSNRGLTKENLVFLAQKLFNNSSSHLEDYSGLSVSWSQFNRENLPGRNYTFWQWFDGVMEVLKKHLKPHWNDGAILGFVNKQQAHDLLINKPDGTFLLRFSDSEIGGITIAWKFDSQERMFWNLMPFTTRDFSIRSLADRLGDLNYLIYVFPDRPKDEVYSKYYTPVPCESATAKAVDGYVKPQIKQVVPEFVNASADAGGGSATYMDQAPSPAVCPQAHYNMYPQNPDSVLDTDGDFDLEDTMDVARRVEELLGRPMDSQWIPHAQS

Legend:
[1] = target: T1, CNOT4 (human (endogenous in patient-derived DGCs)) (UniProt O95628); assay: co-IP; lysates of DGCs in IP lysis buffer with protease and phosphatase inhibitors, antibodies conjugated to magnetic beads (Pierce Classic Magnetic IP/Co-IP Kit), 4 °C overnight, western blot; also in DGCs incubated with GDEs with circCMTM3 overexpression or knockdown
T1 sequence: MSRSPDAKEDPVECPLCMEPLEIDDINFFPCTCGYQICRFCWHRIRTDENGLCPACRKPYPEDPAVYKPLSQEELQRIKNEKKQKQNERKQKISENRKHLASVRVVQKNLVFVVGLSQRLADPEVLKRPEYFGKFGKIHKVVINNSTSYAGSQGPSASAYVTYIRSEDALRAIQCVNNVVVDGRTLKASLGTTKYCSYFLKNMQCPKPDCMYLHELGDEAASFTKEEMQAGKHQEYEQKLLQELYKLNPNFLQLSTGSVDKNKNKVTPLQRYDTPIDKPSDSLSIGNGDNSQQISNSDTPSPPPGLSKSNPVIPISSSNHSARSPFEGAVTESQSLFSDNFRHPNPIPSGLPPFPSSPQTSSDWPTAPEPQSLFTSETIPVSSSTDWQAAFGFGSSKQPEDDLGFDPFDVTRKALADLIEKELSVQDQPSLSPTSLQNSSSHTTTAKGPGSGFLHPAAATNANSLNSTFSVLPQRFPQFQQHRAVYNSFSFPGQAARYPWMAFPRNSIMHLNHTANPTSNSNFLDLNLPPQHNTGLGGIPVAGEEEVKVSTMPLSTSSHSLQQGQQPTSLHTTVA

[2] = target: JAK2 (human (endogenous in patient-derived DGCs)) (UniProt O60674); assay: as above

Row | Substance | binding [1] | binding [2]
1 | STAT5A (from UniProt P42229 1-794) | binds | binds
2 | STAT5B (from UniProt P51692 1-787) | binds | binds
